Experimental data: PubChem BioAssay AID720504 (National Center for Advancing Translational Sciences (NCATS), 2013)
Screen size: about 360,000 compounds; about 10,000 (2.8%) were called active. This list was built around the results that the source calls inconclusive (neither active nor inactive); the mix of calls is not that of the screen. The call rests on the fitted dose curve; in most records, active means well fitted inhibition curve with a large enough effect; inconclusive means small, poorly fitted or top-dose-only effect; inactive means flat fitted curve, though single readings scatter. A potency beside an inconclusive call is a rough fit, not a confirmed value.

Protein sequences, listed by entry. Tags and fused reporters are not part of them.
UniProt P53350, whole entry, looked up: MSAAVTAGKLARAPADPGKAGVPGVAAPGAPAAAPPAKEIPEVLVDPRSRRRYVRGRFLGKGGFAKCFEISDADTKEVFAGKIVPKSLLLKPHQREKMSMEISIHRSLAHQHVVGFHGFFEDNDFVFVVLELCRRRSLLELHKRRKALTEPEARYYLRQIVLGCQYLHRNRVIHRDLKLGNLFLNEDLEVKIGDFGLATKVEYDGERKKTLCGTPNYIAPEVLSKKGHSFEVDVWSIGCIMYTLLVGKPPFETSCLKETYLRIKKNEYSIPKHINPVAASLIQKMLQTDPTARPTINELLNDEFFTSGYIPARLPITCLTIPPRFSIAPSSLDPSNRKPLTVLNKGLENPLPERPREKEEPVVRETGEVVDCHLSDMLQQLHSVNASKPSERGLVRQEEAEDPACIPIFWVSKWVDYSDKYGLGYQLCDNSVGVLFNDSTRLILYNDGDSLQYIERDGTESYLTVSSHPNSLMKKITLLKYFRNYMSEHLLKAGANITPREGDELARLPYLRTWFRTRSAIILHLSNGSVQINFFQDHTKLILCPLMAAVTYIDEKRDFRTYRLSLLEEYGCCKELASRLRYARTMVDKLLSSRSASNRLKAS

Molecular target: Serine/threonine-protein kinase PLK1 (Homo sapiens) (UniProt P53350)
Assay: qHTS for Inhibitors of PLK1-PDB (polo-like kinase 1 - polo-box domain): Primary Screen; further: nearly all actives have a fitted effect of over 65% in size; on max response, negative = inhibition: series mostly up to about 57 µM
Conditions: Plk1 PBD binding of FITC phosphopeptide, fluorescence polarization
On the % scale 0 is the no-effect control and ±100 the full control effect; potency means the concentration at half of the fitted maximal effect.

Row | SMILES | Potency | max response, negative = inhibition
1 | CC(=O)c1cccc(S(=O)(=O)N2CCN(CCOc3ccccc3)CC2)c1 | inconclusive: 29.9 µM [inhibitor, partial curve] | –
2 | Cc1cnc(NC(=O)CCNC(=O)c2ccc([N+](=O)[O-])cc2)s1 | active: 26.7 µM | –
3 | COc1ccc(C2=C(C#N)C(=O)OC2)cc1 | inconclusive: 29.9 µM [inhibitor, partial curve] | –
4 | COc1cc(-c2noc(C)c2C#CC2(N)CCCCC2)cc(OC)c1OC | – | inactive: -9.24%
5 | CCCc1[nH]nc2c1C(c1cc(OC)cc(OC)c1)C(C#N)=C(N)O2 (stereo unspecified) | – | inconclusive: -33.1% [inhibitor]
6 | Cc1cccc(-n2c(O)c(C=Nc3cccc(O)c3)c3ccccc3c2=O)n1 | active: 15 µM | –
7 | N#C/C(=C\c1cccs1)C(=O)Nc1nccs1 | inconclusive: 26.7 µM [inhibitor, single point] | –
8 | O=[N+]([O-])c1ccc(O)c2ncccc12 | – | inactive: -13.3%
9 | CC(=O)Nc1ccc(S(=O)(=O)N2CCN(Cc3cccs3)CC2)cc1 | – | inactive: 4.46%
10 | COc1ccc(NC(=O)c2cc(-c3ccc(C)o3)nc3ccccc23)cc1 | inconclusive: 10.6 µM [inhibitor, partial curve] | –
11 | CCN(Cc1ccccc1)C(=O)C1CCN(CC2CC=CCC2)CC1 (stereo unspecified) | – | inactive: 1.71%
12 | Cc1cccc(NC(=S)Nc2ccc3cn[nH]c3c2)c1 | inconclusive: 29.9 µM [inhibitor, partial curve, poor fit] | –
13 | CN1CCc2nc(SCC(=O)Nc3ccc(OC(F)(F)F)cc3)c(C#N)c(-c3cccs3)c2C1 | inconclusive: 11.9 µM [inhibitor, partial curve] | –
14 | O=C(/C=C/c1ccc(Cl)cc1)NC(=S)Nc1ccccc1C(=O)O | inconclusive: 33.6 µM [inhibitor, single point] | –
15 | NC(=O)NC(=O)COC(=O)CCSc1ccccc1 | inconclusive: 33.6 µM [inhibitor, partial curve] | –
16 | CCOC(=O)c1c(/N=C/c2ccc(OC)cc2O)sc2c1CCN(C)C2 | inconclusive: 23.8 µM [inhibitor, single point] | –
17 | Cc1ccc(S(=O)(=O)N2CC=C(C(=O)NCCC(C)C)CC2)cc1 | – | inactive: -2.94%
18 | COc1ccc(CNC(=O)[C@H](C)NC(=O)C2CC(=O)N(c3ccc(OC)cc3)C2)cc1 (stereo partly specified) | active: 26.7 µM | –
19 | COc1ccc(S(=O)(=O)N2CCCCCC2)cc1NC(=O)CN1C(=O)NC(C)(c2ccc(C)cc2)C1=O (stereo unspecified) | – | inactive: 4.41%
20 | CCc1nnc(NC(=O)CCC(=O)NCCc2ccccc2)s1 | – | inconclusive: -4.68% [inhibitor]
21 | Cc1ccc(NC(=O)NCC2CCN(Cc3cccc(Cl)c3)CC2)c(Cl)c1 | – | inconclusive: -31.6% [inhibitor]
22 | COc1ccccc1N=c1sc2ccccc2n1C | – | inactive: -15.5%
23 | Nc1nonc1-n1nnc(C(=O)N/N=C/c2cccc(Cl)c2)c1CN1CCCCCC1 | – | inactive: -11%
24 | Cc1cccc(NC(=O)CN2CCN(C(=O)c3ccc(OCc4cn5ccccc5n4)cc3)CC2)c1C | inconclusive: 75.2 µM [inhibitor, single point] | –

Row | SMILES | Potency | max response, negative = inhibition
25 | O=C(O)CN1C(=O)/C(=C\c2cc(Br)ccc2OCc2ccccc2F)SC1=S | active: 18.9 µM | –
26 | O=C(c1ccc(S(=O)(=O)N2CCCCCC2)cc1)N1CCN(c2ccccc2)CC1 | – | inconclusive: -30.7% [inhibitor]
27 | O=C(NC(=S)NCCN1CCOCC1)c1ccccc1 | – | inactive: -27.4%
28 | Cc1c(Cl)cccc1NC(=O)Nc1ccccc1C(N)=O | inconclusive: 10.6 µM [inhibitor, partial curve] | –
29 | CC(=O)Nc1ccc2nc3ccccc3nc2c1 | inconclusive: 5.32 µM [inhibitor, single point] | –
30 | C#CCOCCOCCOCCNc1nc(N2CCN(C(=O)C([C@@H](C)CC)n3cc(C(N)CC(C)C)nn3)CC2)nc(N2CCN(C(=O)[C@H](CCC(=O)O)n3cc(C(N)Cc4ccc(O)cc4)nn3)CC2)n1 (stereo partly specified) | – | inactive: -1.35%
31 | CC1CCCN(C(=O)c2nn(C)c3c2CSc2ccccc2-3)C1 (stereo unspecified) | inconclusive: 29.9 µM [inhibitor, single point] | –
32 | CCCCC/C=C\C/C=C\C/C=C\CCCCC(=O)O | inconclusive: 29.9 µM [inhibitor, partial curve] | –
33 | COc1ccc(N2Cc3cccc(C(=O)NC(C)CCc4ccco4)c3C2=O)cc1 (stereo unspecified) | inconclusive: 33.6 µM [inhibitor, single point] | –
34 | COc1ccc(NS(=O)(=O)c2ccc(NC(=S)NC(=O)c3cccc(F)c3)cc2)nn1 | – | inconclusive: -30.1% [inhibitor]
35 | N#Cc1c2c(c(=S)n(-c3ccccc3)c1N)CCCC2 | active: 2.67 µM | –
36 | O=C(Nc1ccc(Cl)cc1-c1nc2ccccc2s1)c1ccco1 | inconclusive: 15 µM [inhibitor, partial curve] | –
37 | CCCOc1ccc(/C(O)=C2/C(=O)C(=O)N(c3ccccn3)C2c2ccc(OC)cc2)cc1C (stereo unspecified) | inconclusive: 26.7 µM [inhibitor, single point] | –
38 | CC(=O)c1cccc(NC(=S)N2CCN(S(=O)(=O)c3ccc(F)cc3)CC2)c1 | inconclusive: 18.9 µM [inhibitor, partial curve] | –
39 | O=C(Nc1ccccc1)Nc1cc(S(=O)(=O)N2CCOCC2)ccc1N1CCCC1 | active: 21.2 µM | –
40 | CC(C)[C@H](NC(=O)c1ccccc1Cl)C(=O)OCC(=O)NC(=O)NCc1ccco1 | inconclusive: 29.9 µM [inhibitor, single point] | –
41 | Cc1ccc2c(c1)C(c1ccc(F)cc1)N(C(=O)C1CC1)CC(=O)N2 (stereo unspecified) | – | inactive: -12.9%
42 | O=c1[nH]c(CSc2nnc(COc3ccccc3)n2-c2ccccc2)nc2ccccc12 | inconclusive: 75.2 µM [inhibitor, partial curve] | –
43 | Cc1ccc(-n2c(-c3ccco3)nc3nc4ccccc4nc32)cc1 | inconclusive: 3.77 µM [inhibitor, single point] | –
44 | COc1cccc(CNC(=O)Cn2ccc3cc(S(=O)(=O)N4CCC(C)CC4)ccc32)c1 | active: 9.47 µM | –
45 | CC(OC(=O)C12CC3CC(CC(O)(C3)C1)C2)C(N)=O (stereo unspecified) | inconclusive: 18.9 µM [inhibitor, single point] | –
46 | COc1cc(C(=O)OCC(=O)c2cc(C)n(CC3CCCO3)c2C)cc(OC)c1C (stereo unspecified) | – | inactive: -3.52%
47 | CCOc1ccc(-c2nn3c(-c4ccccc4)nnc3s2)cc1 | inconclusive: 18.9 µM [inhibitor, partial curve] | –
48 | CSc1nc(-c2ccc(N(C)C)cc2)c(C#N)c(=O)n1C | – | inconclusive: -32.4% [inhibitor]

2 compounds picked at random from the list so far:
Row | SMILES | Potency | max response, negative = inhibition
37 | CCCOc1ccc(/C(O)=C2/C(=O)C(=O)N(c3ccccn3)C2c2ccc(OC)cc2)cc1C (stereo unspecified) | inconclusive: 26.7 µM [inhibitor, single point] | –
48 | CSc1nc(-c2ccc(N(C)C)cc2)c(C#N)c(=O)n1C | – | inconclusive: -32.4% [inhibitor]

Following part:

Row | SMILES | Potency | max response, negative = inhibition
49 | COC(=O)C1CCN(C(=O)c2cc(-c3ccco3)nc3ccccc23)CC1 | active: 29.9 µM | –
50 | Cc1ccc(C(=O)c2coc3c2C(=O)C(=O)c2ccccc2-3)cc1 | inconclusive: 26.7 µM [inhibitor, partial curve] | –
51 | Brc1cccc(OCCCCn2cncn2)c1 | – | inactive: -11%
52 | O=C(O)c1cnn(-c2nc(-c3cccc(F)c3)cs2)c1C(F)(F)F | – | inactive: -22.7%
53 | Cc1onc(-c2ccc(Cl)cc2)c1-c1ccnc(SCC(=O)Nc2ccc(C(C)C)cc2)n1 | – | inactive: -9.39%
54 | CCCCNS(=O)(=O)c1cccc(NC(=O)[C@@H]2O[C@H](CO)[C@H](O)[C@H](O)[C@H]2O)c1 | – | inactive: -7.28%
55 | O=[N+]([O-])c1ccc(S(=O)(=O)Nc2ccc(-c3ccccc3)cc2)cc1 | – | inactive: -14.2%
56 | CCOC(=O)CSc1nc(NC#N)nc(N(CC)CC)n1 | inconclusive: 10.6 µM [inhibitor, partial curve] | –
57 | COCc1cccc(-c2csc(C(C)(O)c3ccccc3)n2)c1 (stereo unspecified) | – | inactive: -2.02%
58 | CN1CCN(C(=S)Nc2cccc(S(=O)(=O)N(C)C)c2)CC1 | inconclusive: 16.8 µM [inhibitor, partial curve] | –
59 | O=C(O)c1cc(N/N=C2/CC(c3ccccc3)Oc3ccccc32)ccc1Cl (stereo unspecified) | inconclusive: 23.8 µM [inhibitor, partial curve] | –
60 | C=CCOc1cccc(C2c3c(oc4ccc(F)cc4c3=O)C(=O)N2CCCN2CCOCC2)c1 (stereo unspecified) | inconclusive: 23.8 µM [inhibitor, partial curve] | –
61 | COCCn1c(SCC(=O)c2ccc(Cl)cc2)nnc1C(C)C | inconclusive: 26.7 µM [inhibitor, partial curve] | –
62 | CCN(CC)S(=O)(=O)c1ccc2oc(C(=O)NCCN3CCOCC3)c(C)c2c1 | active: 26.7 µM | –
63 | Cc1ccc(-c2nc(=S)c3c(n2Cc2ccco2)CC(C)(C)OC3)cc1 | inconclusive: 26.7 µM [inhibitor, partial curve] | –
64 | O=C(/C(=C(\[O-])c1ccccc1)[n+]1ccc2ccccc2c1)c1ccc(Cl)cc1 | – | inactive: -19%
65 | CCOc1ccc(C)cc1S(=O)(=O)n1ccnc1 | inconclusive: 6.7 µM [inhibitor, full curve, poor fit] | –
66 | O=C1C2C(C(=O)N1CC1CCCO1)C1C=CC2C12CC2 (stereo unspecified) | – | inactive: -4.87%
67 | COc1cccc(NC(=O)COC(=O)CNC(=O)C2CCCCC2)c1 | – | inactive: 1.53%
68 | Cc1ccc(S(=O)(=O)Cc2ccc(C(=O)O)o2)cc1 | active: 18.9 µM | –
69 | Cc1cc(/C=C2\C(=N)N3N=C(CC(=O)N4CCOCC4)SC3=NC2=O)c(C)n1-c1ccccc1 | – | inactive: -11.6%
70 | O=C1c2oc3ccc(Cl)cc3c(=O)c2C(c2cccc(Br)c2)N1CCO (stereo unspecified) | inconclusive: 23.8 µM [inhibitor, partial curve] | –
71 | CC(=O)N1c2ccc(S(=O)(=O)N3CCC(C(=O)NC4CCCCC4)CC3)cc2CC1C (stereo unspecified) | inconclusive: 37.7 µM [inhibitor, partial curve] | –

Copied from the list.
Under Potency, Cc1ccc(-c2nc(=S)c3c(n2Cc2ccco2)CC(C)(C)OC3)cc1 is entered as inconclusive: 26.7 µM [inhibitor, partial curve]
Under Potency, O=C1c2oc3ccc(Cl)cc3c(=O)c2C(c2cccc(Br)c2)N1CCO (stereo unspecified) is entered as inconclusive: 23.8 µM [inhibitor, partial curve]
